Laboratory results: publication doi:10.1101/2024.02.27.582283
No constants are given. Whether binding was seen depends on the method and setting. Some entries that bind do so weakly or less than the wild type.

Biological target: T1, ULP-2 N-terminal domain (Gal4-DB::ULP-2 bait, first 5 coding exons, bp 4-771) (C. elegans) (UniProt Q23238)
T1 sequence: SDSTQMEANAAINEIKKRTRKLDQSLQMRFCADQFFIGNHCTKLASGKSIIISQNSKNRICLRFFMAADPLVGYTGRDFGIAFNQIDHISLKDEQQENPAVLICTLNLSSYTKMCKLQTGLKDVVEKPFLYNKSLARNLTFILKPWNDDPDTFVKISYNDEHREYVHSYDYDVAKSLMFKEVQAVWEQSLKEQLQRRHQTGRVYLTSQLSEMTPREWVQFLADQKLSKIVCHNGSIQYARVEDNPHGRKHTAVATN
Test: two-hybrid

- binding: binds
B1: SET-26 N-terminal fragment (residues 1-575) (domain or fragment, UniProt Q9U263 1-575)
chain: MADGEHTLPADEELFEQPPLQQQQPEIAEPIVMAQEPIQGVSEDPQASEATHEAPDNYPVDHQMENQEFYQEPQIPEPQQIPQIPVFQPAAYNPPNYVAPQQRANNFGEPAAAADSRPLTEEEQLAAERPTEDTVWIDSDDDTDVEEAILRANFWLPYSDHNYDPPDPADRIILPTEGPFPCIAGLDEDCNIVKQWMPEDAVGPGSPGTQYRRNQQTGGGLPSTSVAPQQQQLPVRHNIQNRPMVAAQPFSIGGNQVEYGGIGGMDSRMQQRGVVRDGPQYRVMNDFGNGLPMRGQLPPRNSPAANAINRVREQQQQMYHQAGARGSLQQRVPAPAAPTPGSYQHIVNAVPVGGANPMRRVPPQARPGMIGGAANNNRARPIHVTRPMDTQEFEHPVAPAAAAPPRRVVDVAPHRMTPEQRQELQQMNRQRAAPQFPAAAAQRSAEKIVIQQRPGASSSRAPRPSMAQEDLLRSPTRRLSERVPQEHQTPVLEPRRFQVKVTDTYSTPIPKASDQLPAQLTEEDPPEESAAAAAPEDVPDAAPEDPPKGILKPTPPHRMTQEEKNAHFARLTTDK
